In publication PMC6930887:
Results are given in words; binding and its absence hold for the method and conditions named. Some binding calls cover weakened binding; strength is not graded here. Values belong to the substance of their own block, whether it stands above or below them.

Chains of the proteins cited; added tags and fusions are not shown.
UniProt Q99720: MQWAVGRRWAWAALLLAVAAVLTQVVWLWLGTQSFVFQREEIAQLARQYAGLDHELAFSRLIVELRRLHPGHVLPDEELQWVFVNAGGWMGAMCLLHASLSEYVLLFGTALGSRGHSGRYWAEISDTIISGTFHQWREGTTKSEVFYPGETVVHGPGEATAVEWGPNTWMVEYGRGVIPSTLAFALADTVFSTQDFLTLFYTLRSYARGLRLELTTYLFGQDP

Experiments:
[1] = molecular target: N-terminally tagged Myc-σ1R (human) (UniProt Q99720); test: SDS-PAGE western blot without heat denaturation; lysates of transfected HEK293T Δσ1R cells (1.0% triton X-100, 0.5% sodium deoxycholate, 150 mM NaCl, Tris 50 mM pH 7.5) kept on ice (4°C) in β-mercaptoethanol Laemmli buffer; 10% gel, 0.1% SDS running buffer; anti-σ1R (B-5) or anti-myc blot; cells pre-incubated 1 h with 1 μM haloperidol, 1 μM PD 144418, 10 μM (+)-pentazocine or 1% DMSO in some panels
[2] = molecular target: unmodified wildtype (WT) sigma 1 receptor (σ1R) (human) (UniProt Q99720); test: condition: only samples boiled (100°C) before SDS-PAGE; SDS-PAGE western blot after heating of the samples; as the on-ice protocol, but samples heated in the sample buffer (100°C boiling, or 70°C with or without ligands) before SDS-PAGE
[3] = molecular target: N-terminally tagged Nluc-σ1R (human) (UniProt Q99720); test: SDS-PAGE western blot without heat denaturation; lysates of transfected HEK293T Δσ1R cells (1.0% triton X-100, 0.5% sodium deoxycholate, 150 mM NaCl, Tris 50 mM pH 7.5) kept on ice (4°C) in β-mercaptoethanol Laemmli buffer; 10% gel, 0.1% SDS running buffer; anti-σ1R (B-5) or anti-myc blot; cells pre-incubated 1 h with 1 μM haloperidol, 1 μM PD 144418, 10 μM (+)-pentazocine or 1% DMSO in some panels

binding [1]: binds weakly
Substance: N-terminally tagged Myc-σ1R (from UniProt Q99720 1-223) (receptor)

binding [2]: no binding
Substance: unmodified wildtype (WT) sigma 1 receptor (σ1R) (from UniProt Q99720 1-223)

binding [3]: binds weakly
Substance: N-terminally tagged Nluc-σ1R (from UniProt Q99720 1-223) (receptor)
